Data from patent publication US9198422B2, “Pesticidal pyrazole compounds” (BASF SE, priority 2011, dated 2015).
Some entries share one result that the patent states for a list of compounds.

What was measured:
Assay type in all cases: in vivo
[1] = test system: Anthonomus grandis; test: B.6 Boll weevil insect diet microtiter test; settings: 2500 ppm; egg and larval mortality; 5 days
Procedure: B.6 Boll Weevil (Anthonomus grandis)
The compounds were formulated in 3:1 (vol:vol) water:DMSO.
For evaluating control of boll weevil (Anthonomus grandis) the test unit consisted of 24-well-microtiter plates containing an insect diet and 20-30 A. grandis eggs. Different concentrations of formulated compounds were sprayed onto the insect diet at 20 μl, using a custom built micro atomizer, at two replications. After application, the microtiter plates were incubated at 23±1° C. and 50±5% relative humidity for 5 days. Egg and larval mortality was then visually assessed.

[2] = test system: Megoura viciae; test: B.4 Vetch aphid bean leaf disk microtiter test; settings: 2500 ppm; 6 days
[3] = test system: Bemisia argentifolii; test: B.3 Silverleaf whitefly, adult, spray test on cotton plants; settings: 10 ppm; 3 days after treatment
[4] = test system: Myzus persicae; test: B.5 Green peach aphid spray test on bell pepper plants; settings: 10 ppm; after 5 days
[5] = test system: Aphis craccivora; test: B.1 Cowpea aphid spray test on potted cowpea plants; settings: 500 ppm; population reduction assessed after 24, 72 and 120 hours
[6] = test system: Aphis gossypii; test: B.2 Cotton aphid, mixed life stages, spray test on cotton plants; settings: 10 ppm; after 5 days
[7] = test system: Nephotettix virescens; test: B.9 Rice green leafhopper spray test on rice seedlings; settings: 500 ppm; after 72 hours
Procedure: B.9 Rice Green Leafhopper (Nephotettix virescens)
Rice seedlings were cleaned and washed 24 hours before spraying. The active compounds were formulated in 1:1 (vol:vol) water:aceton, and 0.1% vol/vol surfactant (EL 620) was added. Potted rice seedlings were sprayed with 5 ml test solution, air dried, placed in cages and inoculated with 10 adults. Treated rice plants were kept at 28-29° C. and relative humidity of 50-60%. Percent mortality was recorded after 72 hours.

[8] = test system: Dichromothrips corbetti; test: B.8 Orchid thrips petal dip test; settings: 500 ppm; after 72 hours
Procedure: B.8 Orchid Thrips (Dichromothrips corbetti)
The active compounds were formulated as a 1:1 (vol:vol) water:aceton solution. Surfactant (Alkamuls EL 620) was added at the rate of 0.1% (vol/vol). Vanda orchids petals were cleaned, washed and air dried prior to spraying. Petals were dipped into the test solution for 3 seconds, air dried, placed inside a resealable plastic and inoculated with 20 adults. The treated petals were kept inside the holding room at 28-29° C. and relative humidity of 50-60%. Percent mortality was recorded after 72 hours.

[9] = test system: Nilaparvata lugens; test: B.7 Rice plant hopper spray test on rice seedlings; settings: 500 ppm; after 72 hours

Measured: mortality in comparison with untreated controls

CCC(n1ncc(C(=O)Nc2ccnnc2)c1C)C(F)(F)F (stereo not drawn) [I-102]
not listed: [7] | [8] | [9]
at least 75%: all other assays above

Cc1c(C(=O)N(C)c2ccnnc2)cnn1C(C)C1(C#N)CC1 (stereo not drawn) [I-92]
not listed: [7] | [8] | [9]
at least 75%: all other assays above

CCOCN(C(=O)c1cnn(C(C)C(F)(F)F)c1C)c1cccnc1 (stereo not drawn) [I-67]
not listed: [7] | [8] | [9]
at least 75%: all other assays above

Cc1c(C(=O)N(C)c2ccnnc2)cnn1C(C)(C)C#N [I-33]
not listed: [1] | [8] | [9]
at least 75%: all other assays above

Cc1c(C(=O)Nc2cccnc2)cnn1C1(C(F)(F)F)CCOCC1 [I-132]
at least 75%: [1] | [8] | [2] | [4] | [5]

Cc1c(C(=O)Nc2ccnnc2)cnn1C1CCCC1 [I-8]
not listed: [1] | [6] | [8]
at least 75%: all other assays above

Cc1c(C(=O)N(C)c2ccnnc2)cnn1C(C)(C)C(F)(F)F [I-85]
not listed: [7] | [8] | [9]
at least 75%: all other assays above

CCC(C)n1ncc(C(=O)N(C)c2ccnnc2)c1C (stereo not drawn) [I-11]
not listed: [1] | [8]
at least 75%: all other assays above

CCN(C(=O)c1cnn(C(C)(C)C(F)(F)F)c1C)c1ccnnc1 [I-79]
not listed: [1] | [8] | [9]
at least 75%: all other assays above

Cc1c(C(=O)N(C)c2ccnnc2)cnn1C(C)c1ccncc1 (stereo not drawn) [I-127]
at least 75%: [1] | [2] | [4] | [5]

Cc1c(C(=O)Nc2cccnc2)cnn1C(C)C1CC1 (stereo not drawn) [I-374]
at least 75%: [1] | [2] | [4] | [5] | [6]

Cc1c(C(=S)Nc2cccnc2)cnn1C(C)C(F)(F)F (stereo not drawn) [I-63]
not listed: [1] | [8]
at least 75%: all other assays above

Cc1c(C(=O)Nc2ccnnc2)cnn1C1(C#N)CC1 [I-182]
at least 75%: [1] | [2] | [3] | [5] | [6]

CCN(C(=O)c1cnn(C(C)CF)c1C)c1ccnnc1 (stereo not drawn) [I-143]
not listed: [7]
at least 75%: all other assays above

COCN(C(=O)c1cnn(C(C)C(F)(F)F)c1C)c1cccnc1 (stereo not drawn) [I-380]
not listed: [7] | [8] | [9]
at least 75%: all other assays above

Cc1c(C(=O)Nc2ccnnc2)cnn1C(C)C(C)C (stereo not drawn) [I-95]
not listed: [3] | [7] | [9]
at least 75%: all other assays above

Cc1c(C(=O)Nc2cccnc2)cnn1C(C)CC#N (stereo not drawn) [I-94]
not listed: [7] | [9]
at least 75%: all other assays above

CCC(n1ncc(C(=O)N(CC)c2ccnnc2)c1C)C(F)(F)F (stereo not drawn) [I-104]
not listed: [7] | [8] | [9]
at least 75%: all other assays above

Cc1c(C(=O)N(C)c2ccnnc2)cnn1C1CCCC1 [I-7]
not listed: [1] | [8] | [9]
at least 75%: all other assays above

CCN(C(=O)c1cnn(C(C)CCOC)c1C)c1cccnc1 (stereo not drawn) [I-137]
not listed: [7] | [8] | [9]
at least 75%: all other assays above

Cc1c(C(=O)Nc2ccnnc2)cnn1C(C)C(F)F (stereo not drawn) [I-199]
at least 75%: [7] | [9] | [4] | [5] | [6]

Cc1c(C(=O)N(C)c2ccnnc2)cnn1C(C)C(C)C (stereo not drawn) [I-96]
not listed: [7] | [9]
at least 75%: all other assays above
